Test results taken from patent US20160257744A1.
Results are given in words; binding and its absence hold for the method and conditions named.

Experiments:
Flt1 ECD = assay: ELISA: human IgG1 at 250 nM on protein-coated wells, anti-Fc-HRP
VEGF [1] = assay: as above
VEGF [2] = assay: ELISA: IgG at 100 nM on immobilized protein, anti-IgG-HRP [panel A]

binding (Flt1 ECD) | binding (VEGF [1]) | binding (VEGF [2]) | Binder
no binding (tested: 250 nM) | no binding (tested: 250 nM) |  | humanized antibody 19C11 (hu19C11) as IgG (antibody, V domains shown) VH: EVQLVQSGAEVKKPGASVKVSCKASGYTFTDYSMHWVRQAPGQGLEWIVWINTETGEPTYADDFKGRVTITRDTSTSTAYLELSSLRSEDTAVYYCARGGIFYGMDYWGQGTLVTVSS VL: DIQMTQSPSSLSASVGDRVTITCKASQSVINDAAWYQQKPGKAPKLLIYYTSHRYTGVPSRFSGSGSGTDFTLTISSLQEDFATYYCQQDYTSPWTFGQGTKVEIKR
no binding (tested: 250 nM) | no binding (tested: 250 nM) |  | F2 as human IgG1 (antibody, V domains shown) VH: EVQLVQSGAEVKKPGASVKVSCKASGYTFTDYSMHWVRQAPGQGLEWIGIIFYTGHTYYADDFKGRVTITRDTSTSTAYLELSSLRSEDTAVYYCARGGIFYGMDYWGQGTLVTVSS VL: DIQMTQSPSSLSASVGDRVTITCKASQSVINDAAWYQQKPGKAPKLLIYYTSHRYTGVPSRFSGSGSGTDFTLTISSLQEDFATYYCQQDYTSPWTFGQGTKVEIKR
no binding (tested: 250 nM) | no binding (tested: 250 nM) |  | 5A as human IgG1 (antibody, V domains shown) VH: EVQLVQSGAEVKKPGASVKVSCKASGYTFTDYDIHWVRQAPGQGLEWIVWINTETGEPTYADDFKGRVTITRDTSTSTAYLELSSLRSEDTAVYYCAREILFYGMDYWGQGTLVTVSS VL: DIQMTQSPSSLSASVGDRVTITCKASQSVINDAAWYQQKPGKAPKLLIYYTSHRYTGVPSRFSGSGSGTDFTLTISSLQEDFATYYCQQDYTSPWTFGQGTKVEIKR

Further lines, the binder ahead of its results:

Binder | binding (Flt1 ECD) | binding (VEGF [1]) | binding (VEGF [2])
B1 as human IgG1 (antibody, V domains shown) VH: EVQLVQSGAEVKKPGASVKVSCKASGYTFTDYLMHWVRQAPGQGLEWIAVIVSITGRTYYADDFKGRVTITRDTSTSTAYLELSSLRSEDTAVYYCARGGIFYGMDYWGQGTLVTVSS VL: DIQMTQSPSSLSASVGDRVTITCKASQSVINDAAWYQQKPGKAPKLLIYYTSHRYTGVPSRFSGSGSGTDFTLTISSLQEDFATYYCQQDYTPFPLTFGQGTKVEIKR | no binding (tested: 250 nM) | no binding (tested: 250 nM) | 
1C36, affinity-matured variant of E7, as IgG (antibody, V domains shown) VH: EVQLVQSGAEVKKPGASVKVSCKASGYTFTDYFIHWVRQAPGQGLEWIGGIVYDATGFTTYAEEFKGRVTITRDTSTSTAYLELSSLRSEDTAVYYCARGGIFYGMDYWGQGTLVTVSS VL: DIQMTQSPSSLSASVGDRVTITCKASQSVINDAAWYQQKPGKAPKLLIYYTSHRYTGVPSRFSGSGSGTDFTLTISSLQEDFATYYCQQDYTHPWTFGQGTKVEIKR |  |  | no binding (tested: 100 nM)
1C60, affinity-matured variant of E7, as IgG (antibody, V domains shown) VH: EVQLVQSGAEVKKPGASVKVSCKASGYTFTDYFIHWVRQAPGQGLEWIAGIVYDATGFTVYADDFKGRVTITRDTSTSTAYLELSSLRSEDTAVYYCARGGIFYGMDYWGQGTLVTVSS VL: DIQMTQSPSSLSASVGDRVTITCKASQSVINDAAWYQQKPGKAPKLLIYYTSHRYTGVPSRFSGSGSGTDFTLTISSLQEDFATYYCQQDYKHPWTFGQGTKVEIKR |  |  | no binding (tested: 100 nM)
